For at least one entry, the source does not settle the construct or the ends of the probe.
Target: YadG (putative ABC transporter ATP-binding protein) (Escherichia coli J53) (UniProt P36879)
Assay: pull-down, anti-His Western blot
Conditions: 5 mM Mg2+; Bio-11-UTP incorporated; pull-down: 4 C, 2 h, yeast tRNA; recombinant protein; residues 1-308; protein details: N-terminal His6 (pET28a, NdeI/HindIII); label: biotin (internal); probe letters rebuilt from the primers and the genome

The chains behind the UniProt entries cited, without tags or fusion partners. Where a name states a change or a piece, a line headed by the entry shows the natural chain unless it says otherwise.
UniProt P36879: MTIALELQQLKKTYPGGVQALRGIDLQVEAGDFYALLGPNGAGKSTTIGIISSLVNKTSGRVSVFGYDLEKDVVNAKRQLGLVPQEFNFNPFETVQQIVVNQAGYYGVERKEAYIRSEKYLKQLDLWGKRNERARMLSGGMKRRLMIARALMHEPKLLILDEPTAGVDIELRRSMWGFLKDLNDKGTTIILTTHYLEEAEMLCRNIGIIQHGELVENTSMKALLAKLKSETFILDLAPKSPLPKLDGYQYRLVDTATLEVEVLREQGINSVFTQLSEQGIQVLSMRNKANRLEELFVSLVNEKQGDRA

GGGGAUGAAGAUUACCGCCGGCGCAUUCUGACCCAGCUUAAUCGGGGAGAAAGUCGCCAUGCCGUUGCCAGAGCCAUCUGUCACGGUCAAAAAGGUGAGAUAAGAAAACGAUAUACCGACGGUCAGGAAGAUCAACUGGGCACACUGGGGCUGGUCACUAACGCCGUCGUGUUAUGGAACACUAUUUAUAUGCAGGCAGCCCUGGAUCAUCUCCGGGCGCAGGGUGAAACACUGAAUGAUGAAGAUAUCGCACGCCUCUCCCCGCUUUGCCACGGACAUAUCAAUAUGCUCGGCCAUUAUUCCUUCACGCUGGCAGAACUGGUGACCAAAGGACAUCUGAGACCAGGAUCCCG [biotinylated stnpA RNA]
binding result: binds
